## Results of single-concentration screens

By UniProt entry, the sequences of proteins in these tests, tags left out. Residues count along the entry.
UniProt P9WFT3, whole entry: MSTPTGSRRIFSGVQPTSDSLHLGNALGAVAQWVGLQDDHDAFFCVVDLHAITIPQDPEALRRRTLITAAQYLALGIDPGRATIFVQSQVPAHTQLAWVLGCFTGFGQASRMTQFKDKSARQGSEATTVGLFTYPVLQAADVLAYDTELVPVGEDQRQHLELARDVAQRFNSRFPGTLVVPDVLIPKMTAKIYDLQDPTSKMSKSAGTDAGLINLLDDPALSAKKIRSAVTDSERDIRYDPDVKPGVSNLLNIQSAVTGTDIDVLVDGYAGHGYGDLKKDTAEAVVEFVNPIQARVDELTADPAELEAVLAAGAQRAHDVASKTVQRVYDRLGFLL
UniProt I6X8D2, whole entry: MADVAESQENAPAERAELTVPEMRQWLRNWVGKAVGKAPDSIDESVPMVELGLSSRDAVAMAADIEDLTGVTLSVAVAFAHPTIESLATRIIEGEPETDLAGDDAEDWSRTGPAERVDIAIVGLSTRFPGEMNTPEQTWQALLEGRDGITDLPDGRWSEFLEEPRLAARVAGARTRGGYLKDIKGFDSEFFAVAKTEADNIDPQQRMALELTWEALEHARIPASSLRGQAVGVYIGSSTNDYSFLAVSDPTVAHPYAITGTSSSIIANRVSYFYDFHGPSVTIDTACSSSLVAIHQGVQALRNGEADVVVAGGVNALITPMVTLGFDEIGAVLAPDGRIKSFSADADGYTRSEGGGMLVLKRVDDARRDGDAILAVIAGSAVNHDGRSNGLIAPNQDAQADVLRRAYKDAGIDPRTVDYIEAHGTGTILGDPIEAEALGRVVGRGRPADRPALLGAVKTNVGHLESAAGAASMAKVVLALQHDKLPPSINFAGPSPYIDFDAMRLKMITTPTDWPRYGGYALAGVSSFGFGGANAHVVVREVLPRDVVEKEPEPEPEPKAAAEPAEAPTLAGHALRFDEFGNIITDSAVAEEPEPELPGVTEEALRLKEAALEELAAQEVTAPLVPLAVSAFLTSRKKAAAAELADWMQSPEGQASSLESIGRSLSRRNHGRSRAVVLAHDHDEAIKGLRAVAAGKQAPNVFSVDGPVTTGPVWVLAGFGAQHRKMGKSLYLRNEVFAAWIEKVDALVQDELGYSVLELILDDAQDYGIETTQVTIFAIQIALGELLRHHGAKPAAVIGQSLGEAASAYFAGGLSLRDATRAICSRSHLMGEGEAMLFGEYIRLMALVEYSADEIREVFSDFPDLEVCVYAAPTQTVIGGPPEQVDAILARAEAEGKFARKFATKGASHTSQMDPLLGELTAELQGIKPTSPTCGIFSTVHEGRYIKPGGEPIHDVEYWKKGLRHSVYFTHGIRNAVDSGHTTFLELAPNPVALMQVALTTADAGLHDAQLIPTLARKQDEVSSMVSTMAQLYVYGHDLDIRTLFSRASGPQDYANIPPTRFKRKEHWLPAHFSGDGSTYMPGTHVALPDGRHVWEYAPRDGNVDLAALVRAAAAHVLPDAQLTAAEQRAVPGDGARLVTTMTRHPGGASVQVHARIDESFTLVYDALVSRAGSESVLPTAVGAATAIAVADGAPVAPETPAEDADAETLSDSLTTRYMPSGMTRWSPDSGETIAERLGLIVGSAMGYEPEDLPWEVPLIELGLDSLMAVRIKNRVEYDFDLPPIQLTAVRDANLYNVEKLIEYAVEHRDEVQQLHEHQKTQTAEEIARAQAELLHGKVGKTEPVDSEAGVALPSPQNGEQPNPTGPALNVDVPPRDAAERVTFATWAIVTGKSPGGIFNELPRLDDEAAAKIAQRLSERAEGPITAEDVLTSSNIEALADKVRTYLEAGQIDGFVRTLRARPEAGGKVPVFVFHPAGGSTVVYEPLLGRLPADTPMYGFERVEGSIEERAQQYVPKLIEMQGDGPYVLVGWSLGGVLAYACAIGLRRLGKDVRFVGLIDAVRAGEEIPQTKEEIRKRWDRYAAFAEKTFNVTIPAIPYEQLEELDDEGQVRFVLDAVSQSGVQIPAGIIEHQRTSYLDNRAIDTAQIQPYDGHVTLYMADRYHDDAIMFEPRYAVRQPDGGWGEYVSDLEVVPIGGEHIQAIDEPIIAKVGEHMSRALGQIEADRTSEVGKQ
UniProt A4I591, 1-473: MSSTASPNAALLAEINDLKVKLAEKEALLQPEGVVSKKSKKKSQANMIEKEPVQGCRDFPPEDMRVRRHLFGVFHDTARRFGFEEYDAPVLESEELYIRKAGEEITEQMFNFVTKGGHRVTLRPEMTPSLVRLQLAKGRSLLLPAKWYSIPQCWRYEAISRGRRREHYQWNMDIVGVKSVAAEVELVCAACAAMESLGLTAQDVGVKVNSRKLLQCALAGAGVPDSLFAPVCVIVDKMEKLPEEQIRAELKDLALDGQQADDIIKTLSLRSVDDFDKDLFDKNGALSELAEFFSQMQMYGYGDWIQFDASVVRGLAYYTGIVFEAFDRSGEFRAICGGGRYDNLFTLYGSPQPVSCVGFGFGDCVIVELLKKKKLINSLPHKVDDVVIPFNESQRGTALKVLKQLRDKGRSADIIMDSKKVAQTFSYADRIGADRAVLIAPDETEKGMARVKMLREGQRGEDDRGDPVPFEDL
UniProt Q8IDJ8, 1-583: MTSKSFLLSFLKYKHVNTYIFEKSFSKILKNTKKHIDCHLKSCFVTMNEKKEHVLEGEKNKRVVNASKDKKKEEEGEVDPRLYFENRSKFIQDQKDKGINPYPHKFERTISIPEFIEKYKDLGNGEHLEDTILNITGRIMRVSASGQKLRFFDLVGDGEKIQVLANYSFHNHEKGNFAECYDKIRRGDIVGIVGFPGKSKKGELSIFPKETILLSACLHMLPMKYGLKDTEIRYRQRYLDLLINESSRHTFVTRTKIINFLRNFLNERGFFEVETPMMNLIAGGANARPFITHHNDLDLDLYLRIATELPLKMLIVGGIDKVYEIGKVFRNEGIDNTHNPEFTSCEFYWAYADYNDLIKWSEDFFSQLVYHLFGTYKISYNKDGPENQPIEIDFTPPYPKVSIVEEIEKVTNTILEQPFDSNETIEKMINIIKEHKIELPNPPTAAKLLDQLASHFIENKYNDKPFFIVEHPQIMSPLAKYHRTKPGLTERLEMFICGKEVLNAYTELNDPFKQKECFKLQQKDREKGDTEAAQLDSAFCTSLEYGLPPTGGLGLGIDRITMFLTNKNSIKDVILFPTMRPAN

Source: ChEMBL document CHEMBL3988442, “University of Dundee, Small-Polar-MMV Screening Library” (2021).

A: 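Tryptophan-tRNA ligase, Mycobacterium tuberculosis (UniProt P9WFT3). Enzyme assay of tryptophanyl-tRNA synthetase; the read-out is not stated. Concentration: 10 µM. Direction is not recorded; retested compounds ran higher, which suggests that high means inhibition. Size under these conditions: about 65,000 compounds, about 64 of them at 50% or above in at least one test.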
B: 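Polyketide synthase Pks13, Mycobacterium tuberculosis (UniProt I6X8D2). Enzyme assay of the thioesterase domain of polyketide synthase 13; the read-out is not stated. Compounds at 30 µM. The record gives no direction; the compounds picked for IC50 retests had high values, so higher reads as stronger inhibition. About 67,000 compounds were tested under these conditions; 0.46% (about 300) showed 50% or more at least once.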
C: 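Histidine-tRNA ligase, Leishmania infantum (UniProt A4I591). Enzyme assay of histidyl-tRNA synthetase; the read-out is not stated. Compounds at 30 µM. The record gives no direction; compounds that gave an IC50 in retests scored well above the rest, so higher reads as stronger inhibition. The assay is labelled LdHisRS but filed under L. infantum. About 69,000 compounds were tested under these conditions; 0.6% (about 410) showed 50% or more at least once.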
D: 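Lysine-tRNA ligase, Plasmodium falciparum 3D7 (UniProt Q8IDJ8). Enzyme assay of the cytosolic lysyl-tRNA synthetase in 384-well plates, read by luminescence. Compounds at 30 µM. Direction is inferred from only a few compounds that gave an IC50; most scored high, so higher reads as stronger inhibition. Of about 69,000 compounds tested this way, about 49 (0.071%) reached 50% or more in at least one test.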

Values are the deposited “Percent Effect”, in %.
The controls that fix the scale are not given in the record; negative values are as filed.
The compounds are a random part of those screened.
A dash means the value is not listed here; it may have been measured.

| compound | A | B | C | D |
|---|---|---|---|---|
| `CS(=O)(=O)N1CCN(C(=O)c2cccc(Cl)c2)CC2(CNC(=O)C2)C1` (stereo not shown) | -1.082 | -26.64 | 21.05 | 5.111 |
| `N#Cc1c[nH]c(C(=O)N(Cc2ccc(O)cc2)CC2CC2)c1` | 0.1833 | -48.14 | 12.61 | 6.513 |
| `CC1C(=O)Nc2cccnc2N1S(=O)(=O)c1ccc(C#N)c(Cl)c1` (stereo not shown) | -1.288 | -12.13 | 8.824 | -0.09421 |
| `CCOc1ccc(C#N)cc1NC(=O)N1CCOC(C(N)=O)C1` (stereo not shown) | 10.79 | -8.744 | 27.4 | -2.434 |
| `CCn1ccc(NC(=O)CN2C(=O)CC(C)(C)c3ccccc32)n1` | 7.055 | -3.81 | 23.08 | -0.6635 |
| `O=C1NC[C@@]2(C(=O)O)CN(Cc3cccc(OC4CCCC4)c3)C[C@@H]12` | 4.844 | -10.69 | 0 | 0.5729 |
| `COc1cc(CNC(=O)NCc2c(C)cc(C)[nH]c2=O)ccc1C` | 5.189 | -9.054 | 7.2 | 7.628 |
| `CCCc1cnc(C)nc1N1CCC(Cn2cc(C(C)O)nn2)CC1` (stereo not shown) | -3.783 | 3.504 | 16.39 | 2.267 |
| `CN(Cc1ccco1)C(=O)CN1CCOC(Cn2cncn2)C1` (stereo not shown) | -2.466 | -10.34 | 7.692 | 0.04149 |
| `CC(=O)N1CCC(C(=O)NC(C)c2cccc(OC(F)F)c2)CC1` (stereo not shown) | -0.5961 | -15.72 | 27.4 | 3.209 |
| `COc1cc(OC)cc(C2CCN(CC(=O)NCC(F)(F)F)C2)c1` (stereo not shown) | 0.5187 | -0.479 | 7.895 | 5.585 |
| `Cc1ccc(F)cc1NC(=O)C1CCCN1C(=O)C(C)C` (stereo not shown) | -0.277 | -26.04 | 9.091 | 2.57 |
| `COc1ccccc1CN(C)C(=O)c1cc(CN2CCC(O)CC2)on1` | -1.212 | -22.66 | 15.38 | -0.3593 |
| `Cc1nn(C)c(N2CCOCC2)c1CNCc1ccc(CO)c(F)c1` | -4.138 | -14.76 | 13.27 | -1.517 |
| `CSCCc1c(-c2ccccc2)ncn1CC(C)(C)N1CCCC1` | 5.013 | -10.06 | 14.89 | -3.645 |
| `CCN1CC(C(=O)NCCc2csc(-c3ccncc3)n2)CC1=O` (stereo not shown) | -1.227 | -5.588 | 24.71 | 1.508 |
| `CC(Nc1ccc(C#N)cc1F)c1cccc(S(N)(=O)=O)c1` (stereo not shown) | 4.562 | - | 22.32 | 7.091 |
| `Cc1cc(S(C)(=O)=O)c(C)c(S(=O)(=O)N2CCCC(C)C2)c1` (stereo not shown) | -1.22 | 4.656 | 20 | 6.397 |
| `Cn1cccc1C(O)CNS(=O)(=O)Cc1ccccc1` (stereo not shown) | 7.675 | -10.14 | 15.65 | -4.018 |
| `Cn1cc(C(=O)N2CCCC(n3cncn3)C2)ccc1=O` (stereo not shown) | -0.4068 | -19.2 | 3.306 | 5.488 |
| `CN1CC(=O)N(c2cnn(C)c2)CC12CCN(Cc1cccs1)C2` (stereo not shown) | -1.351 | -41.18 | 20.97 | 7.898 |
| `COCc1ccccc1C(=O)N1CCN(C2=NCC(C)(C)S2)CC1` | 2.386 | 9.93 | 14.91 | 5.767 |
| `O=C(CN1CCOC1=O)N1CC[C@@H](c2ccc3ccccc3c2)[C@H](O)C1` | 0.07374 | -27.19 | 14.04 | 8.611 |
| `Cc1c(NC(=O)CN(C)S(C)(=O)=O)cccc1OC1CCCC1` | -1.125 | -10.22 | 6.218 | 5.658 |
| `CCN(C(=O)NCc1cccnc1N(C)C)C(C)c1cccnc1` (stereo not shown) | -2.058 | -16.82 | 6.452 | 0.9309 |
| `NC(=O)CC1CCN(C(=O)CCOc2ccc(Cl)cc2)CC1` | 1.415 | -2.766 | 23.2 | 0.2304 |
| `CC(C)=CCN1C[C@H]2CC[C@@H]1CN(C(=O)c1ccc(S(N)(=O)=O)cc1)C2` | -3.473 | -3.934 | 17.5 | 2.644 |
| `Cc1ccc(CNS(=O)(=O)CCCC#N)cc1F` | -0.6056 | -8.665 | 17.65 | 3.106 |
| `CC(CN1CCOCC1)N(Cc1ccccc1)Cc1ccncc1` (stereo not shown) | -0.3569 | -1.102 | 10.26 | 0.6202 |
| `Cc1nnc(N2CCC(CCN(C)C)CC2)c(C#N)c1C` | 3.499 | -20.03 | 34.71 | 21.37 |
| `O=C(c1ncccn1)N1CCC[C@]2(C[C@H](OCC3CC3)CO2)C1` | -1.095 | -10.41 | 18 | 4.075 |
| `O=C(Cc1ccsc1)N1CCc2ccc(=O)n(CC3CC3)c2CC1` | -0.9168 | -12.88 | 12.82 | 3 |
| `Cc1cnn(CC2CCCN2C(=O)c2nccnc2N)c1` (stereo not shown) | -5.893 | -1.975 | 9.735 | -0.4741 |
| `Cc1cc(NC2CC3(CCN(Cc4ncccc4F)C3)C2)ncn1` (stereo not shown) | -7.04 | -2.837 | 2.685 | 0.3985 |
| `O=C(CN1CCN(CC(O)C2CC2)CC1)NCc1ccccc1Cl` (stereo not shown) | -3.223 | -3.364 | 17.81 | 2.51 |
| `CC(NC(=O)CSCC(N)=O)c1ccccc1Oc1ccccc1` (stereo not shown) | 6.078 | -14.98 | 15.32 | -1.32 |
| `CCOc1ccc2[nH]c(=O)c(CN3CCCC(CO)(CO)C3)cc2c1` | 1.227 | -17.35 | 22.35 | 8.928 |
| `c1ccc(COc2ccccc2CNC2CCc3ncnn3C2)cc1` (stereo not shown) | -10.29 | -27.41 | 6.481 | -1.841 |
| `COC(=O)CC1CCCCN1CC(=O)Nc1cc(F)ccc1F` (stereo not shown) | -0.9084 | 0.4613 | 10.59 | 2.352 |
| `Cc1ccccc1CC(=O)N(C)CC1(O)CCCN(c2ccccn2)C1` (stereo not shown) | - | -3.175 | 12 | 0.9051 |
| `CC(C)c1nccn1CC1CCCN1Cc1nc2ccccc2n1C` (stereo not shown) | -2.251 | -2.502 | 13.33 | 0.5439 |
| `CCOCC(=O)Nc1ccc(N2CCSCC2)cc1C` | -0.07788 | - | 14.29 | 6.586 |
| `COCC1CN(C(=O)Cc2ccccn2)Cc2cn(CC3CC3)nc21` (stereo not shown) | 0.6975 | 0.2945 | 14.55 | 4.047 |
| `COc1ncccc1CN1CCc2[nH]nc(C(=O)N3CCCC3C)c2C1` (stereo not shown) | 4.608 | -14.2 | 15.53 | 5.644 |
| `Cc1noc(C2CCN(C(C)c3nc(C4CC4)no3)CC2)n1` (stereo not shown) | -2.621 | -31.77 | 15 | 3.349 |
| `CCOCc1ccccc1NC(=O)NC1CCN(c2ccccc2)C1` (stereo not shown) | -1.21 | -20.17 | 17.95 | 2.925 |
| `Cc1nc(CN2C[C@@H]3CCCO[C@@H]3[C@H](N(C)C(C)C)C2)cs1` | -6.272 | -13.86 | 14.04 | 4.181 |

The last 6 entries again:

CCOCC(=O)Nc1ccc(N2CCSCC2)cc1C read A: -0.07788%; C: 14.29%; D: 6.586%.
COCC1CN(C(=O)Cc2ccccn2)Cc2cn(CC3CC3)nc21 (stereo not shown) read A: 0.6975%; B: 0.2945%; C: 14.55%; D: 4.047%.
COc1ncccc1CN1CCc2[nH]nc(C(=O)N3CCCC3C)c2C1 (stereo not shown) read A: 4.608%; B: -14.2%; C: 15.53%; D: 5.644%.
Cc1noc(C2CCN(C(C)c3nc(C4CC4)no3)CC2)n1 (stereo not shown) read A: -2.621%; B: -31.77%; C: 15%; D: 3.349%.
CCOCc1ccccc1NC(=O)NC1CCN(c2ccccc2)C1 (stereo not shown) read A: -1.21%; B: -20.17%; C: 17.95%; D: 2.925%.
Cc1nc(CN2C[C@@H]3CCCO[C@@H]3[C@H](N(C)C(C)C)C2)cs1 read A: -6.272%; B: -13.86%; C: 14.04%; D: 4.181%.